Results from the supplement of paper PMC4604168 (melanoma cell lines).
The list shows a part of the results. Single values are uncertain, as repeats are few or missing.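 Cells were imaged in 1,536-well plates, and nuclei stained with an antibody against cleaved PARP were counted against all DNA-stained nuclei to give the apoptosis fraction. Screening doses were chosen to leave most cells alive, and resting and induced cleaved-PARP levels differ strongly between cell lines.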

test system: COLO792; experiment: cleaved PARP positive nuclei fraction relative to DMSO control; melanoma cells; higher = more apoptosis; conditions: library dose: low library concentration; 72 h

Row | SMILES | cleaved PARP positive nuclei fraction [%]
1 | Cn1c(=O)n(-c2ccc(C(C)(C)C#N)cc2)c2c3cc(-c4cnc5ccccc5c4)ccc3ncc21 + Nc1ncn([C@H]2C[C@H](O)[C@@H](CO)O2)c(=O)n1 [decitabine] (first compound 0.004 µM, partner dose 0.1 µM) | 83.7
2 | CC(C)C[C@H](NC(=O)[C@H](Cc1ccccc1)NC(=O)c1cnccn1)B(O)O [Bortezomib] + C=C(c1ccc(C(=O)O)cc1)c1cc2c(cc1C)C(C)(C)CCC2(C)C [Bexarotene] (first compound 0.001 µM, partner dose 2 µM) | 96.7
3 | CCCS(=O)(=O)Nc1ccc(F)c(C(=O)c2c[nH]c3ncc(Cl)cc23)c1F + COCC[n+]1c2c(n(Cc3cnccn3)c1C)C(=O)c1ccccc1C2=O [YM155] (first compound 0.08 µM, partner dose 0.0004 µM) | 93.2
4 | CN1CCN(c2ccc3nc(-c4c(N)c5c(F)cccc5[nH]c4=O)[nH]c3c2)CC1 [Dovitinib] + Cn1c(Nc2ccc(C(F)(F)F)cc2)nc2cc(Oc3ccnc(-c4ncc(C(F)(F)F)[nH]4)c3)ccc21 [CHIR265] (first compound 0.1 µM, partner dose 0.08 µM) | 218
5 | Cn1c(=O)n(-c2ccc(C(C)(C)C#N)cc2)c2c3cc(-c4cnc5ccccc5c4)ccc3ncc21 + Cn1nnc2c(C(N)=O)ncn2c1=O [temozolomide] (first compound 0.004 µM, partner dose 2 µM) | 122
6 | CC(C)C[C@H](NC(=O)[C@H](Cc1ccccc1)NC(=O)c1cnccn1)B(O)O [Bortezomib] + C[C@@H](Oc1cc(-c2cnn(C3CCNCC3)c2)cnc1N)c1c(Cl)ccc(F)c1Cl [Crizotinib] (first compound 0.001 µM, partner dose 0.2 µM) | 15.2
7 | O=C(O)[C@@H]1[O][Sb](=[O])([O][Sb]2(=[O])[O][C@H]([C@H](O)CO)[C@H](O)[C@H](C(=O)O)[O]2)[O][C@H]([C@H](O)CO)[C@@H]1O (stereo partly drawn) [stibogluconate] + OCc1c[nH]c2ccccc12 [Indole-3-carbinol] (first compound 2 µM, partner dose 0.8 µM) | 48.2
8 | C=C(c1ccc(C(=O)O)cc1)c1cc2c(cc1C)C(C)(C)CCC2(C)C [Bexarotene] + Cn1nnc2c(C(N)=O)ncn2c1=O [temozolomide] (first compound 2 µM, partner dose 2 µM) | 79.2
9 | Nc1ncn([C@H]2C[C@H](O)[C@@H](CO)O2)c(=O)n1 [decitabine] + C[C@]1(c2nc3c(C(N)=O)cccc3[nH]2)CCCN1 [Veliparib] (first compound 0.1 µM, partner dose 1.4 µM) | 118
10 | CN1CCN(c2ccc3nc(-c4c(N)c5c(F)cccc5[nH]c4=O)[nH]c3c2)CC1 [Dovitinib] + Nc1nc(F)nc2c1ncn2[C@@H]1O[C@H](CO)[C@@H](O)[C@@H]1O [fludarabine] (first compound 0.1 µM, partner dose 0.2 µM) | 92.1
11 | CO[C@H]1C[C@@H]2CC[C@@H](C)[C@@](O)(O2)C(=O)C(=O)N2CCCC[C@H]2C(=O)O[C@H]([C@H](C)C[C@@H]2CC[C@@H](OCCO)[C@H](OC)C2)CC(=O)[C@H](C)/C=C(\C)[C@@H](O)[C@@H](OC)C(=O)[C@H](C)C[C@H](C)/C=C/C=C/C=C/1C [everolimus] + Clc1ccc(Nc2nnc(Cc3ccncc3)c3ccccc23)cc1 [vatalanib] (first compound 0.02 µM, partner dose 2 µM) | 233
12 | CO[C@H]1C[C@@H]2CC[C@@H](C)[C@@](O)(O2)C(=O)C(=O)N2CCCC[C@H]2C(=O)O[C@H]([C@H](C)C[C@@H]2CC[C@@H](OCCO)[C@H](OC)C2)CC(=O)[C@H](C)/C=C(\C)[C@@H](O)[C@@H](OC)C(=O)[C@H](C)C[C@H](C)/C=C/C=C/C=C/1C [everolimus] + C#Cc1cccc(Nc2ncnc3cc(OCCOC)c(OCCOC)cc23)c1 [erlotinib] (first compound 0.02 µM, partner dose 0.8 µM) | 50.5
13 | CS(=O)(=O)CCNCc1ccc(-c2ccc3ncnc(Nc4ccc(OCc5cccc(F)c5)c(Cl)c4)c3c2)o1 [lapatinib] + OCc1c[nH]c2ccccc12 [Indole-3-carbinol] (first compound 0.8 µM, partner dose 0.8 µM) | 108
